Laboratory results reported in article PMC9152322.
Results are given in words; binding and its absence hold for the method and conditions named. Binding seen in cells or lysates may run through a third protein. Here binding means that the protein was enriched with, or labelled near, the bait; the list need not be complete.

Sequences of proteins named here, by UniProt entry; tags and fusion partners are left off.
UniProt P46937: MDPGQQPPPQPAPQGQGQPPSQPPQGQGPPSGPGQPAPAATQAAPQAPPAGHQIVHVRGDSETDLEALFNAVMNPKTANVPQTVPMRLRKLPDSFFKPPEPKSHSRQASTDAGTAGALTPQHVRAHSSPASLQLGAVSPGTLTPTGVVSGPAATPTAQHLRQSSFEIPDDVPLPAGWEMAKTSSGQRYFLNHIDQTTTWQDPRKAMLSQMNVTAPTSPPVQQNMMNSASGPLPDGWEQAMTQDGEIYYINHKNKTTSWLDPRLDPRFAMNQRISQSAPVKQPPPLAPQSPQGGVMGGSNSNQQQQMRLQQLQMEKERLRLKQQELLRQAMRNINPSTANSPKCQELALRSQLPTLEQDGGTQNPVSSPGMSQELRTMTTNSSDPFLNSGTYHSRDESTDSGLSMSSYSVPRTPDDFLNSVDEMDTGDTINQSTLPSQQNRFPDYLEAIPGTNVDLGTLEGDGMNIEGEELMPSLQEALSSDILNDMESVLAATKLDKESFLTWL
UniProt P09874: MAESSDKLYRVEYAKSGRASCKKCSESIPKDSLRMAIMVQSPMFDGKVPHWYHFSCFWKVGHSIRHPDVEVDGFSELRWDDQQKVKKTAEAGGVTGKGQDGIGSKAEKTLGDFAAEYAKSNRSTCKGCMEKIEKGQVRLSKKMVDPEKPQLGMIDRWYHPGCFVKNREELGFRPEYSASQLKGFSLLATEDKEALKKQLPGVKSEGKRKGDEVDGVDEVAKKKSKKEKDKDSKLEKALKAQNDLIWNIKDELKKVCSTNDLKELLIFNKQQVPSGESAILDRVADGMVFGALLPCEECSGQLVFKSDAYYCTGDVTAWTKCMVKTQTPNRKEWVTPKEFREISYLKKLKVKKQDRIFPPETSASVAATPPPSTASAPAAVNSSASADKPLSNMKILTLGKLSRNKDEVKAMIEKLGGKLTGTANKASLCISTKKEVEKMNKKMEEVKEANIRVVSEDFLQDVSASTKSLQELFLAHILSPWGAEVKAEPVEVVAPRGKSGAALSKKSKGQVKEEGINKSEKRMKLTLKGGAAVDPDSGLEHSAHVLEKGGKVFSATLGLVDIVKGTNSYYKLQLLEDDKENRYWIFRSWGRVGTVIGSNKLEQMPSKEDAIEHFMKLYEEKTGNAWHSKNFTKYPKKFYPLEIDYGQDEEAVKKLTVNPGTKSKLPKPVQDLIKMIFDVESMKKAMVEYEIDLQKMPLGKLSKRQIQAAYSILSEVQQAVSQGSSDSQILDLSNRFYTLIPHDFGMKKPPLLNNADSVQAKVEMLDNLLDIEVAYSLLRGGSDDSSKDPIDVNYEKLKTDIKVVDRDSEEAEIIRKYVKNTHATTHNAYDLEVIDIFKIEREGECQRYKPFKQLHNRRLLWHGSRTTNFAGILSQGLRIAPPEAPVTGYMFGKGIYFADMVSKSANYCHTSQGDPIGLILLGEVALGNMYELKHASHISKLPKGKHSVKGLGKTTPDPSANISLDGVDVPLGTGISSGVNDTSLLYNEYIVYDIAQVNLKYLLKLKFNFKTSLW

Target: Yes-associated protein 1 (YAP1) (human (endogenous in MV4-11)) (UniProt P46937)
Assay: affinity purification with mass spectrometry; anti-YAP1 or IgG antibody with protein A/G PLUS agarose on cell lysates (25 mM Tris-HCl pH 7.4, 150 mM NaCl, 1% NP-40, 1 mM EDTA), 16 h 4°C, five PBS washes, SDS-PAGE, Q Exactive LC/MS; control (NC) and YAP1-overexpressed (YO) MV4-11-SorR cells; Score Sequest HT ≥ 1.5, proteins of the IgG group removed

Row | binding | Substance
1 | binds | valosin-containing protein (VCP) (from UniProt P55072 1-806)
2 | binds | poly (ADP-ribose) polymerase 1 (PARP1) (from UniProt P09874 1-1014)
